{"source": "patent US6403777B1", "about": "“Metalloligands for cleaving nucleic acids” (The Ohio State University Research Foundation, priority 1999, dated 2002)", "experiment": "Stability of the metalloligands in aqueous solution", "note": "Some entries share one result that the patent states for a list of compounds.", "data": [{"substance": "Cu(neomycin B)", "values": [{"measurement": "time to formation of precipitates", "result": "≤ 4", "unit": "h"}]}]}
